Some results come without the dose or concentration used.
System: cisplatin resistant mouse leukemia cells L1210 (L1210/CDDP)
Assay: Experiment 2 growth inhibition of cisplatin resistant L1210/CDDP cells
Type: cell-based
Conditions: from values on L1210/CDDP and L1210 cells by printed equation

SMILES	a (drug sensitivity)
N.N.O=C([O-])C1(C(=O)[O-])CCC1.[Pt+2] [CBDCA, cisdiamino-1,1-cyclobutanedicarboxylato platinum (II)]	7.3
N.N.[Cl][Pt][Cl] [CDDP, cis-dichlorodiamine platinum (II)]	6.3

— patent US5101054A, “Novel fluorine-containing platinum complex” (priority 1989, dated 1992)
